These are yes or no findings as the source states them, for the method shown. In cells and extracts the contact can be indirect. A yes stands for co-enrichment or nearness to the bait. Other partners may have been found. Where a sequence is shown, tags or fusion partners need not be part of it.

The chains behind the UniProt entries cited, without tags or fusion partners.
UniProt Q5TZA2: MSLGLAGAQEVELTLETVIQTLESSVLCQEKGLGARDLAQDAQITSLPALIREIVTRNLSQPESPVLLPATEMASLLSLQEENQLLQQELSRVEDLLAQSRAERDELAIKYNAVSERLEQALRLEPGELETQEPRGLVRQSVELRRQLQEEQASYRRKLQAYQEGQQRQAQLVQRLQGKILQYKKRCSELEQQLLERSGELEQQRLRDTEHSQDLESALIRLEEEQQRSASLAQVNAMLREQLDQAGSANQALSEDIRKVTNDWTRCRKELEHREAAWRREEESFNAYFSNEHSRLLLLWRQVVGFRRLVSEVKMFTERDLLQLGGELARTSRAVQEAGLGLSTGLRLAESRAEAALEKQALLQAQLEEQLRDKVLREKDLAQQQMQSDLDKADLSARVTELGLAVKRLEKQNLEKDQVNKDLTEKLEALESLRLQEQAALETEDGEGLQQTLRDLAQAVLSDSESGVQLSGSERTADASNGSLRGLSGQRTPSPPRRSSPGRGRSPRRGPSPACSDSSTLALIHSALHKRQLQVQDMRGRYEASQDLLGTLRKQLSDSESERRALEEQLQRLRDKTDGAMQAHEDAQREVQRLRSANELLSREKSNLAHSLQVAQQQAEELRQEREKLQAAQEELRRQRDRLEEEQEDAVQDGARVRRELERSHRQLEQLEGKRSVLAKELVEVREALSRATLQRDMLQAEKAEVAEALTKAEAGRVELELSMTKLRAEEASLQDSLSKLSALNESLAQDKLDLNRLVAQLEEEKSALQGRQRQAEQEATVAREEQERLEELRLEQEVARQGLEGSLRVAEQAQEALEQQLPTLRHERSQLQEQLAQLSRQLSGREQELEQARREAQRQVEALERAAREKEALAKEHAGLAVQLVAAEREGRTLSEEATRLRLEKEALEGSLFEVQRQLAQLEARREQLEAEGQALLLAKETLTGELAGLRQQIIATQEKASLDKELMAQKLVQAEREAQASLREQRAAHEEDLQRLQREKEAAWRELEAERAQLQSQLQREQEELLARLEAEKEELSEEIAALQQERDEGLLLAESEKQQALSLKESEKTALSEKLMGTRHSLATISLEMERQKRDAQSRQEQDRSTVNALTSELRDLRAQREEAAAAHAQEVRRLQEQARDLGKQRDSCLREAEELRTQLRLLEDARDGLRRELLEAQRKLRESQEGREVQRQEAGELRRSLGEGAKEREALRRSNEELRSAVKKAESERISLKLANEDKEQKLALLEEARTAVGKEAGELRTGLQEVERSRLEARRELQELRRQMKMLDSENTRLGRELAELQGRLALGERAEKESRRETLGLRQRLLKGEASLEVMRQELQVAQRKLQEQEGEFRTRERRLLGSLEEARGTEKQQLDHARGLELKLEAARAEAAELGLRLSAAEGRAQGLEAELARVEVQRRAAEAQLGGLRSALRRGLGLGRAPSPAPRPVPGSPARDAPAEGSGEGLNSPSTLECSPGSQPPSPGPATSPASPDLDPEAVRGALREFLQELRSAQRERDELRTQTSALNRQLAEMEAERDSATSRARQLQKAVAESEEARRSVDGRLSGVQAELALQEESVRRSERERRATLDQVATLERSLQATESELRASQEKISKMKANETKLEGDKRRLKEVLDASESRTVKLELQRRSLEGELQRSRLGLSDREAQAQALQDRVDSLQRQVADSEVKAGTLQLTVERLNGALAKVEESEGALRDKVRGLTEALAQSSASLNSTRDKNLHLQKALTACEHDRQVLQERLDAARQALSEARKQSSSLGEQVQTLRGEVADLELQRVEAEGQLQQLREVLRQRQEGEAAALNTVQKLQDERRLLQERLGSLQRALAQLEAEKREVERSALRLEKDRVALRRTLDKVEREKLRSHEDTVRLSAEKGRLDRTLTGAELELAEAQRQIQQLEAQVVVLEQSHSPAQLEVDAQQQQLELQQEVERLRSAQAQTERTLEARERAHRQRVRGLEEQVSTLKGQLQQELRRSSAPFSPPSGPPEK

The target in assay [1] is T1, endogenously FLAG-tagged TTC30B (human (endogenous in HEK293T)) (UniProt Q8N4P2).
T1 sequence: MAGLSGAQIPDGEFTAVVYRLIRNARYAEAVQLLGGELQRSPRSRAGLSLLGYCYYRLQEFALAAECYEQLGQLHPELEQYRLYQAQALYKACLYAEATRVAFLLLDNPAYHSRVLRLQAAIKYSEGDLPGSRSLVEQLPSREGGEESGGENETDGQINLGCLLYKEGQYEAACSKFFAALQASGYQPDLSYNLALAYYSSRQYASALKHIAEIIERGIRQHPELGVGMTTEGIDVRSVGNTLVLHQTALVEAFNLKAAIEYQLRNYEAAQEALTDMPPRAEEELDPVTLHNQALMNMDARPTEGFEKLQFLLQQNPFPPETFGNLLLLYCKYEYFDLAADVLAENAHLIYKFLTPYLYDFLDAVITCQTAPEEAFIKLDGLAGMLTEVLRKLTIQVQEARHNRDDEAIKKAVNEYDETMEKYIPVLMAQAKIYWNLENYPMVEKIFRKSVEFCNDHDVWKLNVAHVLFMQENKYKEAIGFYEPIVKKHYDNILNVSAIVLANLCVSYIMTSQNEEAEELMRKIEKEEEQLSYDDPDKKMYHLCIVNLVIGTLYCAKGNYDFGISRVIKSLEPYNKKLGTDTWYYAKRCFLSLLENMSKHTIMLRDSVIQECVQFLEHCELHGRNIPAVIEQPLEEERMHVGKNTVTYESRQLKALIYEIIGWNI
The assay is described as follows: affinity purification with mass spectrometry; anti-Flag-M2-agarose beads on lysates of endogenously FLAG-tagged TTC30A or TTC30B HEK293T cells, serum starved for 16 h; elution with Flag-peptide; label-free LC-MS/MS; six biological replicates against an untagged Cas9 empty-vector control clone.

Assay [2] deals with T2, endogenously FLAG-tagged TTC30A (human (endogenous in HEK293T)) (UniProt Q86WT1).
T2 sequence: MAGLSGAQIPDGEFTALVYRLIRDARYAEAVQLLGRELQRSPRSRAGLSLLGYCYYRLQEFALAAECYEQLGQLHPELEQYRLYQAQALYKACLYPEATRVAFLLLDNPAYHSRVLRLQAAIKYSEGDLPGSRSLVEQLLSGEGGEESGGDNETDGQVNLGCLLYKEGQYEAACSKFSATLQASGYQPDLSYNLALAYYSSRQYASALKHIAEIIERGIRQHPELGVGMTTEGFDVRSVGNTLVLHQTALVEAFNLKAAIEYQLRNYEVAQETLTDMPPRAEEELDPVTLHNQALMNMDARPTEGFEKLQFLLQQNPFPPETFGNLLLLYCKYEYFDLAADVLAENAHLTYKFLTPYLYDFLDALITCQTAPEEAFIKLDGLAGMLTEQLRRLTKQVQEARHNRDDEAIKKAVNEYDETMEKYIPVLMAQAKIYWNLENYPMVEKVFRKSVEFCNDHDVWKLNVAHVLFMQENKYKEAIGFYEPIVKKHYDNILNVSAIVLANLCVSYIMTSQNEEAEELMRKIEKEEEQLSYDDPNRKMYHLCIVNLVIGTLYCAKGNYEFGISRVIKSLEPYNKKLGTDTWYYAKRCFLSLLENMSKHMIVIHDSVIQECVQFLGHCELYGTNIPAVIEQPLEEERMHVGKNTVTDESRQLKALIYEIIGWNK
Described as above.

Consider “CROCC/rootletin (from UniProt Q5TZA2 1-2017)”, for which the binding entry in assay [1] is given as “binds”.

B1: DHX34 (protein, UniProt Q14147 1-1143)
chain: MPPPRTREGRDRRDHHRAPSEEEALEKWDWNCPETRRLLEDAFFREEDYIRQGSEECQKFWTFFERLQRFQNLKTSRKEEKDPGQPKHSIPALADLPRTYDPRYRINLSVLGPATRGSQGLGRHLPAERVAEFRRALLHYLDFGQKQAFGRLAKLQRERAALPIAQYGNRILQTLKEHQVVVVAGDTGCGKSTQVPQYLLAAGFSHVACTQPRRIACISLAKRVGFESLSQYGSQVGYQIRFESTRSAATKIVFLTVGLLLRQIQREPSLPQYEVLIVDEVHERHLHNDFLLGVLQRLLPTRPDLKVILMSATINISLFSSYFSNAPVVQVPGRLFPITVVYQPQEAEPTTSKSEKLDPRPFLRVLESIDHKYPPEERGDLLVFLSGMAEISAVLEAAQTYASHTQRWVVLPLHSALSVADQDKVFDVAPPGVRKCILSTNIAETSVTIDGIRFVVDSGKVKEMSYDPQAKLQRLQEFWISQASAEQRKGRAGRTGPGVCFRLYAESDYDAFAPYPVPEIRRVALDSLVLQMKSMSVGDPRTFPFIEPPPPASLETAILYLRDQGALDSSEALTPIGSLLAQLPVDVVIGKMLILGSMFSLVEPVLTIAAALSVQSPFTRSAQSSPECAAARRPLESDQGDPFTLFNVFNAWVQVKSERSRNSRKWCRRRGIEEHRLYEMANLRRQFKELLEDHGLLAGAQAAQVGDSYSRLQQRRERRALHQLKRQHEEGAGRRRKVLRLQEEQDGGSSDEDRAGPAPPGASDGVDIQDVKFKLRHDLAQLQAAASSAQDLSREQLALLKLVLGRGLYPQLAVPDAFNSSRKDSDQIFHTQAKQGAVLHPTCVFAGSPEVLHAQELEASNCDGSRDDKDKMSSKHQLLSFVSLLETNKPYLVNCVRIPALQSLLLFSRSLDTNGDCSRLVADGWLELQLADSESAIRLLAASLRLRARWESALDRQLAHQAQQQLEEEEEDTPVSPKEVATLSKELLQFTASKIPYSLRRLTGLEVQNMYVGPQTIPATPHLPGLFGSSTLSPHPTKGGYAVTDFLTYNCLTNDTDLYSDCLRTFWTCPHCGLHAPLTPLERIAHENTCPQAPQDGPPGAEEAALETLQKTSVLQRPYHCEACGKDFLFTPTEVLRHRKQHV
On to B1, for which, in assay [2], the binding entry is “binds”.

The values are drawn from PMC9319246.
